These are yes or no findings as the source states them, for the method shown. Binding seen in cells or lysates may run through a third protein. Some binding calls cover weakened binding; strength is not graded here.
How the values were obtained:
[1] = target: endogenous ARNT (human (endogenous in 7209 and U87MG)) (UniProt P27540); experiment: co-IP; endogenous proteins in 7209 and U87MG lysates (IP lysis buffer); ARNT antibody or p38α antibody overnight at 4 °C, Protein A Dynabeads, non-specific IgG as control, western blot
[2] = target: Glutathione S-transferase (GST)-tagged ARNT (UniProt P27540); experiment: pull-down; GST-tagged ARNT (or ARNT fragments) transfected into HEK293T cells with or without p38α plasmid; lysates incubated with glutathione sepharose beads for 1 h, washed with lysis buffer, western blot

Chains of the proteins cited; added tags and fusions are not shown.
UniProt P27540: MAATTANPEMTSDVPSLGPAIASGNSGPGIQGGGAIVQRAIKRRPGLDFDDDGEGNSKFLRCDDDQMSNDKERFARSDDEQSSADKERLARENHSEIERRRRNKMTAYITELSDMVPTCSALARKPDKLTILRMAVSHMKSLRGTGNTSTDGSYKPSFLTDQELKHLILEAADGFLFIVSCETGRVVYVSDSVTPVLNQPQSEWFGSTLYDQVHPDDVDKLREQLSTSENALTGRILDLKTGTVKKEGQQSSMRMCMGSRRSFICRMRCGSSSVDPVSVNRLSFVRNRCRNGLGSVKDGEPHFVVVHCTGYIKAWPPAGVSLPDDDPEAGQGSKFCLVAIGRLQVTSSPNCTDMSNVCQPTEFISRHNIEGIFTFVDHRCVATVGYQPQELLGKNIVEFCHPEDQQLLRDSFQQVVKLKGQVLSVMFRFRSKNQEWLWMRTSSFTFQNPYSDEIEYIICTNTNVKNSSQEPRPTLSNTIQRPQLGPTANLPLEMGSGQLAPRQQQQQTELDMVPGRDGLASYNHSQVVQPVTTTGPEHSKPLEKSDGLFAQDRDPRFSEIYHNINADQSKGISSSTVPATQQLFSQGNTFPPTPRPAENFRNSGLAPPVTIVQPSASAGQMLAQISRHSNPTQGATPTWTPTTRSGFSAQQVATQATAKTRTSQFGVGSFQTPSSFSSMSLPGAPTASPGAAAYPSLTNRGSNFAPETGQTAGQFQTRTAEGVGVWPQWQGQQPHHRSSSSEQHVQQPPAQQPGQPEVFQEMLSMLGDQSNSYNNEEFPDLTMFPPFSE
UniProt Q16539: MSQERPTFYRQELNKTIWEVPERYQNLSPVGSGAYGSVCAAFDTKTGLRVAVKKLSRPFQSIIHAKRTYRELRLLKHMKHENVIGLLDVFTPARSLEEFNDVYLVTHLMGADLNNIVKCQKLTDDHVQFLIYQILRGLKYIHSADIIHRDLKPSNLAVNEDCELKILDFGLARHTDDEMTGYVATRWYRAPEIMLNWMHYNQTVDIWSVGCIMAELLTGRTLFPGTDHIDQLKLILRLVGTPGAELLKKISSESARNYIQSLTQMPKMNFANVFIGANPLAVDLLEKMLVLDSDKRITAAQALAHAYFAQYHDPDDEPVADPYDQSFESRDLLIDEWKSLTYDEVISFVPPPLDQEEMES

binding [1] | binding [2] | Substance
binds |  | endogenous p38α (from UniProt Q16539 1-360)
 | binds | p38α (from UniProt Q16539 1-360)

— publication PMC11133443
